Measurements as given in article doi:10.1101/2025.09.01.673592.
Results are given in words; binding and its absence hold for the method and conditions named. Binding seen in cells or lysates may run through a third protein. Some results given as binding are weak or reduced against the parent protein; the word gives no strength. For part of these data: Tags and fused reporters may be left off the sequences shown.

Protein sequences, listed by entry. Tags and fused reporters are not part of them.
UniProt Q9CWH6: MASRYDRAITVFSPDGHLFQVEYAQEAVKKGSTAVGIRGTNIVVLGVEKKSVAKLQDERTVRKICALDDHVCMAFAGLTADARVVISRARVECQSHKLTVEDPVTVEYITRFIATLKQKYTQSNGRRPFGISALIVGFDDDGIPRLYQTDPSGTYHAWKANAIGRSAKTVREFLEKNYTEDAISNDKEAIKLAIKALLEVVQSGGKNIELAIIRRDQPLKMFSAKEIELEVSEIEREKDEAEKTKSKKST
UniProt Q9Z2U0: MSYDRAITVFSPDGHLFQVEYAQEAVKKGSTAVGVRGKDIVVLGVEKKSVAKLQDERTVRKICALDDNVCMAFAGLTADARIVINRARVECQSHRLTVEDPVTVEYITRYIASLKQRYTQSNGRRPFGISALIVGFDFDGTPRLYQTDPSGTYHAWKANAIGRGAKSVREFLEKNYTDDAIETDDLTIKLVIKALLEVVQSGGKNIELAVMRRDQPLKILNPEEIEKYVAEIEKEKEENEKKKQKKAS
UniProt Q8VDM4: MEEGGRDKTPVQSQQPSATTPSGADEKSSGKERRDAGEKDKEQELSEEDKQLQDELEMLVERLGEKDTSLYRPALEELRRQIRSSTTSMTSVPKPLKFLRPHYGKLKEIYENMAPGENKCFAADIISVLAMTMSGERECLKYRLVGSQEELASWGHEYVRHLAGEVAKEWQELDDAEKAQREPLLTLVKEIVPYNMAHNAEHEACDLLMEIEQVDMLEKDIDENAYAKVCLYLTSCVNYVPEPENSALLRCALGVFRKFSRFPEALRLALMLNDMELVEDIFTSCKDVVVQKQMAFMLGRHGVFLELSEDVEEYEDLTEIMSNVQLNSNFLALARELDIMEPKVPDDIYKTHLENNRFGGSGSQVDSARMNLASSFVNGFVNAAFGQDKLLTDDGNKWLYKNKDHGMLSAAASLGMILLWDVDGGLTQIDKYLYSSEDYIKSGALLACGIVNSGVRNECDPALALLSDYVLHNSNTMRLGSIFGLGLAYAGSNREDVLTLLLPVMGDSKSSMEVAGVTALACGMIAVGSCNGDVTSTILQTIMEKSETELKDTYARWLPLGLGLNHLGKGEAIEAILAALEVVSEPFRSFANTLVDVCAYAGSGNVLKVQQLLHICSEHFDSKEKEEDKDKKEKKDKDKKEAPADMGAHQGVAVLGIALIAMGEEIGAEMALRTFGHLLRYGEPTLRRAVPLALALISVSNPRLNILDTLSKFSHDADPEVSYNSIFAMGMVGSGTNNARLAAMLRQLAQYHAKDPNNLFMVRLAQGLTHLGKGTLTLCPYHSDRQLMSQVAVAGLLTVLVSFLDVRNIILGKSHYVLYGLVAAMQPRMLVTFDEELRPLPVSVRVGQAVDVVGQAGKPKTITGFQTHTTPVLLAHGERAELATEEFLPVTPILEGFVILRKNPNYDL
UniProt P25786: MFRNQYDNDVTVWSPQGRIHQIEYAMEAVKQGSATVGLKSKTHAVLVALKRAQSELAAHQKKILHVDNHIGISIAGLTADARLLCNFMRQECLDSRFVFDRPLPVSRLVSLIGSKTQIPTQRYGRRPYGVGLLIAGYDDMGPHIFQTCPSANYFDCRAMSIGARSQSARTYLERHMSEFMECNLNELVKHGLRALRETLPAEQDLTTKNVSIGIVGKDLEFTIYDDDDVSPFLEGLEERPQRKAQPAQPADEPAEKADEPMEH
UniProt Q9R1P4: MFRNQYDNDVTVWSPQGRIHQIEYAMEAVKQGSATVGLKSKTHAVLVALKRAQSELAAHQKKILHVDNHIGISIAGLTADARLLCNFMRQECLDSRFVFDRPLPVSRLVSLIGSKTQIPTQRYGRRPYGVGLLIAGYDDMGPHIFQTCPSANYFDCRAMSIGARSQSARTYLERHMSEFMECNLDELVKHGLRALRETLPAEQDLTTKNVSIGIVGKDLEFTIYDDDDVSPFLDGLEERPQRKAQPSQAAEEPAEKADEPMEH
UniProt P25787: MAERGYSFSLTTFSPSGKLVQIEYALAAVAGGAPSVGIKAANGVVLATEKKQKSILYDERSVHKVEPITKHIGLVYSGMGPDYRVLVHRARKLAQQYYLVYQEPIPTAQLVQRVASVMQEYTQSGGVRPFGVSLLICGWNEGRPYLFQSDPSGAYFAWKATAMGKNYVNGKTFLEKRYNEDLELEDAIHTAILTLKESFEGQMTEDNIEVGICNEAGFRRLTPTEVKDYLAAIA
UniProt Q13200: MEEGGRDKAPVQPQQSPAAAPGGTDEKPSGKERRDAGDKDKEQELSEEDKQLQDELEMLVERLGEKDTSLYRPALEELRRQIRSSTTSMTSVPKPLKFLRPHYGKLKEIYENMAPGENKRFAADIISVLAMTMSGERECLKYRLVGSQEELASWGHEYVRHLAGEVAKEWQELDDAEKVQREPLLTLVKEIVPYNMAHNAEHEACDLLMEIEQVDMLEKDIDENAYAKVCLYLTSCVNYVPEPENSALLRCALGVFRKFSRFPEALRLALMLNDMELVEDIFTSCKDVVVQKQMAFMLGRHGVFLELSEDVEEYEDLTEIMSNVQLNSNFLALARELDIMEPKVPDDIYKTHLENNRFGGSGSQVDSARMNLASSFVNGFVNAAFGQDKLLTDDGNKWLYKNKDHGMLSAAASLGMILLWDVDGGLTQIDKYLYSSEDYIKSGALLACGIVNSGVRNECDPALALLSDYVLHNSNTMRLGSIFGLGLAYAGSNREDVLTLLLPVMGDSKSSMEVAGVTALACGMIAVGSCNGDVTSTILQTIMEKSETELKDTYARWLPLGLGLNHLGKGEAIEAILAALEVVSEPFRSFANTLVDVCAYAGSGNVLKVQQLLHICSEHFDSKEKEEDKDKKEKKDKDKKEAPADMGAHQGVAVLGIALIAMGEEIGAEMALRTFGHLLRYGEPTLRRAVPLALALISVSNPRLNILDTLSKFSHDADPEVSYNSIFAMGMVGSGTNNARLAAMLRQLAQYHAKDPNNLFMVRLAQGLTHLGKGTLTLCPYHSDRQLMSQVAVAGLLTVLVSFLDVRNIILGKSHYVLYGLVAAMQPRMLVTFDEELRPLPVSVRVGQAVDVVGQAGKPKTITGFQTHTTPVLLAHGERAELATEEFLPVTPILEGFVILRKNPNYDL
UniProt P55036: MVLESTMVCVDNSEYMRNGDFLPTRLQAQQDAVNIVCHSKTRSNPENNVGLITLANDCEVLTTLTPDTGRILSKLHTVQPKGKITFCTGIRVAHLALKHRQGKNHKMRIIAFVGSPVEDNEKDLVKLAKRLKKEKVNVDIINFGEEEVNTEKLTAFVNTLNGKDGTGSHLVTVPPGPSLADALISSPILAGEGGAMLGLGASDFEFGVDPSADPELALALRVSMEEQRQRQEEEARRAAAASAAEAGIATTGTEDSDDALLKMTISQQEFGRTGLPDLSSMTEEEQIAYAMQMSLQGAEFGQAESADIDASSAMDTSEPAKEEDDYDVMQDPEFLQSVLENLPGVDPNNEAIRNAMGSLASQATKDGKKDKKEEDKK
UniProt O00487: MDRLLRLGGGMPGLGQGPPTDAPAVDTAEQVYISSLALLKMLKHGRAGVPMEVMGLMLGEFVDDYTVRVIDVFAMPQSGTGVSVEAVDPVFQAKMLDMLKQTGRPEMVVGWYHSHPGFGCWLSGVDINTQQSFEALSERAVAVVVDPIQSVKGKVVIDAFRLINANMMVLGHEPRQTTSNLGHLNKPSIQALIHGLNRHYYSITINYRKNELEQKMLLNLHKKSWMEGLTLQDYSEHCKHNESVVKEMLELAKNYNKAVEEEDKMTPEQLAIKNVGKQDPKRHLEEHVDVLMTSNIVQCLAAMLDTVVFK

T1: MYC-Fetuin B (mouse) (UniProt Q9QXC1)
T1 sequence: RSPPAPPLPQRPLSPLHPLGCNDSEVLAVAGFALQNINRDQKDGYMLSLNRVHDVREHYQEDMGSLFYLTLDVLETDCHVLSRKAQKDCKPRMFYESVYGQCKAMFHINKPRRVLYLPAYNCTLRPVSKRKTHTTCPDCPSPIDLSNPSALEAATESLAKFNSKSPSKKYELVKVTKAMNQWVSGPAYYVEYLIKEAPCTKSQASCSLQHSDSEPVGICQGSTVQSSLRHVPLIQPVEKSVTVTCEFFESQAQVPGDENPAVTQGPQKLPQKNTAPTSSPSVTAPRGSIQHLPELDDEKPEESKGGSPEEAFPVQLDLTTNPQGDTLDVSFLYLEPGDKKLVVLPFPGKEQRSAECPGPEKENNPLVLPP

B1: MARCH3-FLAG (enzyme, UniProt Q8BRX9 1-218)
chain: MTTSRCSHLPEVLPDCTSSAAPVVKTVEDCGSLVNGQPQYVMQVSAKDGQLLSTVVRTLATQSPFNDRPMCRICHEGSSQEDLLSPCECTGTLGTIHRSCLEHWLSSSNTSYCELCHFRFAVERKPRPLVEWLRNPGPQHEKRTLFGDMVCFLFITPLATISGWLCLRGAVDHLHFSSRLEAVGLIALTVALFTIYLFWTLRRYGHQSKPFWNQSSRS

Legend:
PSMA8 = PSMA8 (UniProt Q9CWH6); assay: co-IP
PSMA7 = PSMA7 (UniProt Q9Z2U0); assay: co-IP
[1] = target: PSMD2 (mouse (endogenous in embryos)) (UniProt Q8VDM4); assay: proximity ligation
MYC-Fetuin B (mouse) = target: T1, MYC-Fetuin B (mouse); assay: co-IP

Molecule | binding (PSMA8) | binding (PSMA7) | binding [1] | binding (MYC-Fetuin B (mouse))
PSMA1 (from UniProt P25786 1-263) | binds | binds |  | 
PSMA1-eGFP (from UniProt Q9R1P4 1-263) |  |  | binds | 
PSMA2 (from UniProt P25787 1-234) | binds | binds |  | 
PSMD2 (from UniProt Q13200 1-908) | binds | binds |  | 
PSMD4 (from UniProt P55036 1-377) | binds | binds |  | 
PSMD14 (from UniProt O00487 1-310) | binds | binds |  | 
B1 |  |  |  | binds
